Data from publication doi:10.1101/2024.02.27.582368 (bioRxiv, 2024).
These are yes or no findings as the source states them, for the method shown. Some binding calls cover weakened binding; strength is not graded here.

How the values were obtained:
[1] = molecular target: N-domain39-190 of BC1280 (Bacillus cereus ATCC14579) (UniProt Q81GC7); assay: thioflavin T aggregation kinetics
[2] = molecular target: N-domain39-190 of BC1280 (Bacillus cereus ATCC14579) (UniProt Q81GC7); assay: X-ray diffraction of ultracentrifuged assemblies
[3] = molecular target: N-domain39-190 of BC1280 (Bacillus cereus ATCC14579) (UniProt Q81GC7); assay: SEC
[4] = molecular target: N-domain39-190 of BC1280 (Bacillus cereus ATCC14579) (UniProt Q81GC7); assay: dynamic light scattering

Measured: binding

B1: N-domain39-190 of BC1280 (domain or fragment, Bacillus cereus ATCC14579, UniProt Q81GC7 39-190, looked up)
chain: AAFIHETKVEATLSTAIIFPKTVNTLKEQSEKHKQFIEREYGTMKGKLKATSIEEIKQAISVWQQGREKIVAEKEALQNVYTEIEAPYNQIQEELKVNKDESMQQVSIYVNEGFRSIKEKRDYIEKEISLKAIDEQIQALQQQLNVAIEAEG
binds: [1] | [2] | [3] | [4]
